Data as given in article PMC10249358, “Elucidation of Short Linear Motif-Based Interactions of the FERM Domains of Ezrin, Radixin, Moesin, and Merlin” (Biochemistry, 2023).
These are yes or no findings as the source states them, for the method shown. For some assays here: In cells and extracts the contact can be indirect. Some entries that bind do so weakly or less than the wild type.

The chains behind the UniProt entries cited, without tags or fusion partners. Where a name states a change or a piece, a line headed by the entry shows the natural chain unless it says otherwise. Residues count along the entry.
UniProt P35240, residues 22-312: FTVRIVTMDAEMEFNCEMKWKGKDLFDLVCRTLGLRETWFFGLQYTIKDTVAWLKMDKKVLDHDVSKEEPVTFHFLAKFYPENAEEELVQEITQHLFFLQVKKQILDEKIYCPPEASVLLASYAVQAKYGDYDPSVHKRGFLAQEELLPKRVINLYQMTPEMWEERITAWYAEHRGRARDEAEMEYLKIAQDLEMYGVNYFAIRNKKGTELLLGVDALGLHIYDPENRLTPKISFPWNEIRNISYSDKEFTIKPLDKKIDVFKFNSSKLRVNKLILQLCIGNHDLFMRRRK
UniProt Q8IZU9: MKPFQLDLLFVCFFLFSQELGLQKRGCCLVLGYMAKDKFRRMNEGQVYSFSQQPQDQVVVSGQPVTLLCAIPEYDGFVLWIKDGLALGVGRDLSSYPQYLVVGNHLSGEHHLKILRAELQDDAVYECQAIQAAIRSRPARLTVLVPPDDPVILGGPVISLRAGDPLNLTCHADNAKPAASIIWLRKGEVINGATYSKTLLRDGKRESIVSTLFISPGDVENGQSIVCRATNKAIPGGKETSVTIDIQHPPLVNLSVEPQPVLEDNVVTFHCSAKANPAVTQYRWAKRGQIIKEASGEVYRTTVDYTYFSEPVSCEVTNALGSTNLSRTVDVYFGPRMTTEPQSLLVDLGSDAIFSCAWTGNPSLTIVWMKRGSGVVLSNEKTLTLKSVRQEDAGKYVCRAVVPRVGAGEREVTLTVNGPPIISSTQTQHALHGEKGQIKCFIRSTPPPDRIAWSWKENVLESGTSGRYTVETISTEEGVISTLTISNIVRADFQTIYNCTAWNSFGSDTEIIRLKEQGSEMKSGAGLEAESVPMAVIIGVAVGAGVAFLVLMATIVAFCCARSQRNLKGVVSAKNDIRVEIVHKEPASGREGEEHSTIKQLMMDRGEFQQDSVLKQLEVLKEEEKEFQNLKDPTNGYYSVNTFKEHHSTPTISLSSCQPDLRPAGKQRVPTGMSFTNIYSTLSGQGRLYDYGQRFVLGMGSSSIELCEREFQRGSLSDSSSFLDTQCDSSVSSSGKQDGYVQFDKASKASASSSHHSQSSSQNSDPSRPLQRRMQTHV
UniProt P57082: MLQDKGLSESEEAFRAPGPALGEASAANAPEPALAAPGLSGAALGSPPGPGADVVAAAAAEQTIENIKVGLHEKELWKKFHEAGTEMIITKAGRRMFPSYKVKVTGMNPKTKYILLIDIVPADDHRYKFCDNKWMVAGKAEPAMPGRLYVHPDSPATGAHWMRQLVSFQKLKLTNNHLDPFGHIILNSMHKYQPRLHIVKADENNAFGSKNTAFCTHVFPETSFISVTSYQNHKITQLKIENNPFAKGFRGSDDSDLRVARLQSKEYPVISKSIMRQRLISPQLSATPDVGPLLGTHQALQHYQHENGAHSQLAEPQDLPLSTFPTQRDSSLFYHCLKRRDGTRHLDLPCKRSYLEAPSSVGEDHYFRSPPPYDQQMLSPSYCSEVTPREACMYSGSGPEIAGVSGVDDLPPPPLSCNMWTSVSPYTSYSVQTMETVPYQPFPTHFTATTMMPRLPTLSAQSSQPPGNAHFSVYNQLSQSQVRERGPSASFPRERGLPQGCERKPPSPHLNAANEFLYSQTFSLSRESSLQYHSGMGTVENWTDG
UniProt O14745: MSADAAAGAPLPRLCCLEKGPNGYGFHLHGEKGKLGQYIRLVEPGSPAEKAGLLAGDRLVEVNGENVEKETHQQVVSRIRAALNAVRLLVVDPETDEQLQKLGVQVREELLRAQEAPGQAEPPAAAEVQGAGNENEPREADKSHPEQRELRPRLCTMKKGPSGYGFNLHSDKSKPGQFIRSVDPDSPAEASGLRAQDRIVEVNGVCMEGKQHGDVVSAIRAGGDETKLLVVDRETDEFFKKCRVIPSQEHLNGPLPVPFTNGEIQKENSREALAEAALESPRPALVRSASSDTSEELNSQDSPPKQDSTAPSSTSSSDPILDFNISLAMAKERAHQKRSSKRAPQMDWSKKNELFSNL
UniProt A6ND36: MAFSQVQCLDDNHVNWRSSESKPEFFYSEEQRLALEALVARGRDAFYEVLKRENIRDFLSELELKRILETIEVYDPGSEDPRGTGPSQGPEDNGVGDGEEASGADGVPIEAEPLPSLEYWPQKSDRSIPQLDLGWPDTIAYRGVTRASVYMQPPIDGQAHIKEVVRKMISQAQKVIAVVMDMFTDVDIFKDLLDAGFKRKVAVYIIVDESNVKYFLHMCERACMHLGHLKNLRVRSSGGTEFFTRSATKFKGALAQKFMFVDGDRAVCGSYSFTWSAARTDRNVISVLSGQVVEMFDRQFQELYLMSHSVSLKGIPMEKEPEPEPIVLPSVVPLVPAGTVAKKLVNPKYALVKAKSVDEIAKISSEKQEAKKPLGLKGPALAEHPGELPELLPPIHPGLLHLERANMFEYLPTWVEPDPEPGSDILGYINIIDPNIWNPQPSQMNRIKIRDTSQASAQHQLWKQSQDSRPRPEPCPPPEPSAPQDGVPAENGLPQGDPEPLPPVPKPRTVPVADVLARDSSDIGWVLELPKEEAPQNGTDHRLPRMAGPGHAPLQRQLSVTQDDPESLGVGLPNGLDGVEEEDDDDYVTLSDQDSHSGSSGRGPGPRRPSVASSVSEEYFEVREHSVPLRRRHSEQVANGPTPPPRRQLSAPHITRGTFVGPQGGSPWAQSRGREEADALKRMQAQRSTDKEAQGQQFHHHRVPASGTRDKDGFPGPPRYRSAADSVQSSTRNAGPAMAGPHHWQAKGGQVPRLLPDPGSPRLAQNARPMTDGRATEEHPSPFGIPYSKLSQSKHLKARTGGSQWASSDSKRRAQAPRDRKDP

How the values were obtained:
[1] = molecular target: moesin FERM domain (UniProt P26038); test: fluorescence polarisation; competition: precomplex of FERM domain (2 x KD) and FITC-KIRREL3(637–652) probe, titrated with unlabeled peptide; constants printed as KD′; FP buffer; both purified
[2] = molecular target: moesin FERM domain (UniProt P26038); test: fluorescence polarisation; direct binding of FITC-labeled probe peptide titrated with moesin FERM in the presence of a saturating concentration of unlabeled peptide (80–150 μM); FP buffer; both purified
[3] = molecular target: GST-tagged merlin FERM domain (human) (UniProt P35240); test: ELISA; clonal phage ELISA: GST-tagged merlin FERM immobilised, phage displaying one peptide added; ratio of A450 on target to GST background, normalized to the WT peptide; only the target purified
[4] = molecular target: GST-tagged merlin FERM domain (human) (UniProt P35240); test: pull-down; GST-tagged moesin or merlin FERM domain mixed with lysate of transfected HEK293 cells (0.5 mg protein) and GSH magnetic beads, GFP-Trap or anti-FLAG M2 beads, overnight 4 °C; 50 mM Tris-HCl pH 7.4, 150 mM NaCl, 0.5% NP-40; immunoblot; only the target purified
[5] = molecular target: GST-tagged moesin FERM domain (UniProt P26038); test: as above

Binder: YYSVNTFKEHHSTPTI (peptide, UniProt Q8IZU9 637-652) [KIRREL3(637–652) peptide, unlabeled]
- binding [1]: binds

Binder: TNGYYSVNTFKEHHSTPTI (peptide, UniProt Q8IZU9 634-652) [KIRREL3(634–652) peptide, unlabeled, N-terminally extended]
- binding [1]: binds

Binder: SYSVQTMETVPYQPFP (peptide, UniProt P57082 428-443) [TBX4(428–443) peptide, unlabeled]
- binding [2]: binds

Binder: APQMDWSKKNELFSNL (peptide, UniProt O14745 343-358) [EBP50(343–358) peptide, unlabeled]
- binding [2]: binds

Binder: LEFADFYDFRSSYPDH (peptide, UniProt Q969S3 341-356) [ZNF622(341–356) peptide, unlabeled]
- binding [2]: binds

Binder: AEPLPSLEYWPQKSDR (peptide, UniProt A6ND36 111-126) [FAM83G(111–126) peptide displayed on M13 phage]
- binding [3]: binds

Binder: FYDLWASDNPLDRPLV [NOP53(192–207) peptide displayed on M13 phage]
- binding [3]: binds

Binder: SLEYWPQKSDR (peptide, UniProt A6ND36 116-126) [FAM83G(111–126) phage peptide, N-terminal truncation (AEPLP deletion)]
- binding [3]: binds

Binder: AEPLPSLEYWPQ (peptide, UniProt A6ND36 111-122) [FAM83G(111–126) phage peptide, C-terminal truncation (KSDR deletion)]
- binding [3]: binds

B1: full-length ZNF622 (protein, UniProt Q969S3 1-477)
chain: MATYTCITCRVAFRDADMQRAHYKTDWHRYNLRRKVASMAPVTAEGFQERVRAQRAVAEEESKGSATYCTVCSKKFASFNAYENHLKSRRHVELEKKAVQAVNRKVEMMNEKNLEKGLGVDSVDKDAMNAAIQQAIKAQPSMSPKKAPPAPAKEARNVVAVGTGGRGTHDRDPSEKPPRLQWFEQQAKKLAKQQEEDSEEEEEDLDGDDWEDIDSDEELECEDTEAMDDVVEQDAEEEEAEEGPPLGAIPITDCLFCSHHSSSLMKNVAHMTKDHSFFIPDIEYLSDIKGLIKYLGEKVGVGKICLWCNEKGKSFYSTEAVQAHMNDKSHCKLFTDGDAALEFADFYDFRSSYPDHKEGEDPNKAEELPSEKNLEYDDETMELILPSGARVGHRSLMRYYKQRFGLSRAVAVAKNRKAVGRVLQQYRALGWTGSTGAALMRERDMQYVQRMKSKWMLKTGMKNNATKQMHFRVQVRF
- binding [4]: binds
- binding [5]: binds

B2: full-length RRBP1 (protein, UniProt Q9P2E9 1-1410)
chain: MDIYDTQTLGVVVFGGFMVVSAIGIFLVSTFSMKETSYEEALANQRKEMAKTHHQKVEKKKKEKTVEKKGKTKKKEEKPNGKIPDHDPAPNVTVLLREPVRAPAVAVAPTPVQPPIIVAPVATVPAMPQEKLASSPKDKKKKEKKVAKVEPAVSSVVNSIQVLTSKAAILETAPKEVPMVVVPPVGAKGNTPATGTTQGKKAEGTQNQSKKAEGAPNQGRKAEGTPNQGKKTEGTPNQGKKAEGTPNQGKKAEGTPNQGKKAEGAQNQGKKVDTTPNQGKKVEGAPTQGRKAEGAQNQAKKVEGAQNQGKKAEGAQNQGKKGEGAQNQGKKAEGAQNQGKKAEGAQNQGKKAEGAQNQGKKAEGAQNQGKKAEGAQNQGKKAEGAQNQGKKVEGAQNQGKKAEGAQNQGKKAEGAQNQGKKAEGAQNQGKKAEGAQNQGKKAEGAQNQGKKAEGAQNQGKKAEGAQNQGKKVEGAQNQGKKAEGAQNQGKKAEGAQNQGKKAEGAQNQGQKGEGAQNQGKKTEGAQGKKAERSPNQGKKGEGAPIQGKKADSVANQGTKVEGITNQGKKAEGSPSEGKKAEGSPNQGKKADAAANQGKKTESASVQGRNTDVAQSPEAPKQEAPAKKKSGSKKKGEPGPPDADGPLYLPYKTLVSTVGSMVFNEGEAQRLIEILSEKAGIIQDTWHKATQKGDPVAILKRQLEEKEKLLATEQEDAAVAKSKLRELNKEMAAEKAKAAAGEAKVKKQLVAREQEITAVQARMQASYREHVKEVQQLQGKIRTLQEQLENGPNTQLARLQQENSILRDALNQATSQVESKQNAELAKLRQELSKVSKELVEKSEAVRQDEQQRKALEAKAAAFEKQVLQLQASHRESEEALQKRLDEVSRELCHTQSSHASLRADAEKAQEQQQQMAELHSKLQSSEAEVRSKCEELSGLHGQLQEARAENSQLTERIRSIEALLEAGQARDAQDVQASQAEADQQQTRLKELESQVSGLEKEAIELREAVEQQKVKNNDLREKNWKAMEALATAEQACKEKLLSLTQAKEESEKQLCLIEAQTMEALLALLPELSVLAQQNYTEWLQDLKEKGPTLLKHPPAPAEPSSDLASKLREAEETQSTLQAECDQYRSILAETEGMLRDLQKSVEEEEQVWRAKVGAAEEELQKSRVTVKHLEEIVEKLKGELESSDQVREHTSHLEAELEKHMAAASAECQNYAKEVAGLRQLLLESQSQLDAAKSEAQKQSDELALVRQQLSEMKSHVEDGDIAGAPASSPEAPPAEQDPVQLKTQLEWTEAILEDEQTQRQKLTAEFEEAQTSACRLQEELEKLRTAGPLESSETEEASQLKERLEKEKKLTSDLGRAATRLQELLKTTQEQLAREKDTVKKLQEQLEKAEDGSSSKEGTSV
- binding [4]: binds
- binding [5]: no binding

Binder: FYDLWASDN [NOP53(192–207) phage peptide, C-terminal truncation (deletion of PLDRPLV)]
- binding [3]: no binding
